Results are given in words; binding and its absence hold for the method and conditions named. Some binding calls cover weakened binding; strength is not graded here.
Legend:
[1] = biological target: matrix metalloprotease-2 (MMP-2), activated (UniProt P08253); test: peptide cleavage kinetics by HPLC
[2] = biological target: matrix metalloprotease-9 (MMP-9), activated (UniProt P14780); test: peptide cleavage kinetics by HPLC

Protein sequences, listed by entry. Tags and fused reporters are not part of them. Residues count along the entry.
UniProt P08253, residues 110-660: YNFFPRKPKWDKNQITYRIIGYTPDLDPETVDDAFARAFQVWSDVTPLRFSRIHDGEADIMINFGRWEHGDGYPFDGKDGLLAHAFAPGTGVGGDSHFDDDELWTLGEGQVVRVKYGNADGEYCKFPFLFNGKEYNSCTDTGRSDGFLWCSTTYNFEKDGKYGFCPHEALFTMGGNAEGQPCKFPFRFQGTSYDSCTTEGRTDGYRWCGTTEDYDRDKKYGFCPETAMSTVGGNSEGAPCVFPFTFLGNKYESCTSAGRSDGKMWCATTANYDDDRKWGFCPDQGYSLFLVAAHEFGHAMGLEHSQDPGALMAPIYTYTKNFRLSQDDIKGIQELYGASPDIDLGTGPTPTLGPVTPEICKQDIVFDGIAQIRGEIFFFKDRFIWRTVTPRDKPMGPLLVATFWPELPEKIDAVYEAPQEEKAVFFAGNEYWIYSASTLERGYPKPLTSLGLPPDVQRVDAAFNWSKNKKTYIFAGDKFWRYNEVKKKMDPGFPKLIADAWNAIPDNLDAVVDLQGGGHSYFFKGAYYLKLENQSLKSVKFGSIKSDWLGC
UniProt P14780, residues 107-707: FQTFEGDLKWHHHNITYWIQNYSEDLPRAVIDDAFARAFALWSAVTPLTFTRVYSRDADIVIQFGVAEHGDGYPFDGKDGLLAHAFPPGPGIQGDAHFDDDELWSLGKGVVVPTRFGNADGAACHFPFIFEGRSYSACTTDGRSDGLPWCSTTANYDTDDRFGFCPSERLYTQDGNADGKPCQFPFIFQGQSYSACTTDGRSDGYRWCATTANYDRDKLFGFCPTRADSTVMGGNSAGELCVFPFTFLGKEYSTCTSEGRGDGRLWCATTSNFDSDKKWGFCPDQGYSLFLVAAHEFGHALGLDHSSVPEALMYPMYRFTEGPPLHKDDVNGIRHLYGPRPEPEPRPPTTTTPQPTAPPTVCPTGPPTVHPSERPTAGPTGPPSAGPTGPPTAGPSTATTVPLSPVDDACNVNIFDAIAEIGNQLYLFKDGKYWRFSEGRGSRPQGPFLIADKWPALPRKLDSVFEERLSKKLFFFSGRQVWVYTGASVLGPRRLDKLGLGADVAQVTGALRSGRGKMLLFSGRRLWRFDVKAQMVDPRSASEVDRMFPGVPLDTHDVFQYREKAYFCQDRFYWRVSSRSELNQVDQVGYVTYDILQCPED

binding [1]: binds
binding [2]: binds
Binder: KPAGLLGC (fluorescein containing lysine (Lys*) at position 1) [Lys*-Pro-Ala-Gly-Leu-Leu-Gly-Cys (SEQ ID NO:2)]

Reference: patent publication US20080131510A1
